Test results from patent US9452997B2, “Piperidine and piperazine derivatives as autotaxin inhibitors” (Merck Patent GmbH, priority 2009, dated 2016).

Target: Recombinant autotaxin (Homo sapiens, UniProt Q13822)
Assay: Autotaxin assay (Amplex Red, LPC substrate)
Settings: read-out: IC50 value, Amplex Red detection, values given as upper bounds
Method: Autotaxin activity is measured indirectly by means of Amplex Red Reagent. In this course, Amplex Red is measured as fluorogenic indicator for generated H2O2. Autotaxin converts substrate lysophosphatidylcholine (LPC) to phosphocholine and lysophosphatidylic acid (LPA). After the conversion phosphocholine is reacted with alkaline phosphatase to obtain inorganic phosphate and choline. During the next step choline is oxidized with choline oxidase to yield betaine, whereby H2O2 is generated. H2O2 reacts with Amplex Red Reagent in the presence of peroxidase (Horseradish peroxidase) in an 1:1 stochiometry and yields highly fluorescent resorufin. The generated fluorescence is measured in a reaction-dependent kinetic mode in order to enable subtraction of fluorescence signals of possible other fluorescent compounds that are not part of the reaction from total measured fluorescence. […]
Thereafter, the reaction is started through the addition of 5 μL-a-lysophosphatidyl-choline (LPC), whereby the final concentration of LPC is 75 μM. […] The fluorescence is immediately measured at a wavelength of 612 nm with an excitation wavelength of 485 nm in a “Tecan Ultra multimode” fluorescence reader. The activity of autotaxin is indirectly calculated via the amount of detected generated H2O2. […]
IC50 values were calculated on normalized data. […]

O=C(NC1CCN(C2CCN(C(=O)CCc3ccc(C(F)(F)F)cc3)CC2)C1)c1ccc2[nH]nnc2c1 (stereo not shown)
IC50: < 10 µM

Structures were worked out from names or drawings and are uncertain.
